Results on two substances are retold here after US20250188151A1 (The University of Bath, priority 2022, published 2025).

A short description of this series: general procedure: Fmoc solid-phase peptide synthesis; ChemMatrix Rink amide resin. As to conditions: whole synthesis, scale of the general procedure 0.1 mmol.

With “Ac-LARENEELEKEAEELVVEEDVLEEEIEQLEERNYALRKEIEDLQKQLEKL-NH2”, the difficulty met is 2 and 3 only produced at strikingly low yields. The same measure for “Ac-LEKEAEELVVEEDVLEEEIEQLEERNYALRKEIEDLQKQLEKL-NH2”: 2 and 3 only produced at strikingly low yields.
